Assay results: publication PMC5570293
These are yes or no findings as the source states them, for the method shown. Binding seen in cells or lysates may run through a third protein. Some entries that bind do so weakly or less than the wild type. Where a sequence is shown, tags or fusion partners need not be part of it.

Assays:
Assay in all cases: co-IP; S2 cells cotransfected with UAS plasmids and actC5-GAL4, 72 h expression; immunoprecipitation with rabbit anti-GFP antibodies; Western blots with anti-GFP, anti-FLAG or anti-HA
[1] = target: T1, GFP-Mfap1^1-229 (Drosophila) (UniProt Q9W062)
T1 sequence: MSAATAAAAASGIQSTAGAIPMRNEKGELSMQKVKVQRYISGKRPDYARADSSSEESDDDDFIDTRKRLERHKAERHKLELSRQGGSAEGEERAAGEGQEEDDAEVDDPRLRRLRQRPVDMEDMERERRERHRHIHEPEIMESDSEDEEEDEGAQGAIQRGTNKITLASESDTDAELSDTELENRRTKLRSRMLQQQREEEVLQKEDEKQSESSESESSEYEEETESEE

[2] = target: T2, GFP-Mfap1^230-478 (Drosophila) (UniProt Q9W062)
T2 sequence: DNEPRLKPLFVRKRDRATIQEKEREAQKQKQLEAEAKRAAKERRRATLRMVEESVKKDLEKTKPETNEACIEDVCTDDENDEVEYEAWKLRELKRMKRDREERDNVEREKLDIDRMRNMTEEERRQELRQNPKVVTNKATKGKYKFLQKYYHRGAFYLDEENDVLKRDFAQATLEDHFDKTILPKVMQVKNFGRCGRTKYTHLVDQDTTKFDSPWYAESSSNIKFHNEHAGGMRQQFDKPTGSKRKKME

[3] = target: T3, Mfap1-GFP (C-terminally GFP-tagged full length Mfap1, 1-478) (Drosophila) (UniProt Q9W062)
T3 sequence: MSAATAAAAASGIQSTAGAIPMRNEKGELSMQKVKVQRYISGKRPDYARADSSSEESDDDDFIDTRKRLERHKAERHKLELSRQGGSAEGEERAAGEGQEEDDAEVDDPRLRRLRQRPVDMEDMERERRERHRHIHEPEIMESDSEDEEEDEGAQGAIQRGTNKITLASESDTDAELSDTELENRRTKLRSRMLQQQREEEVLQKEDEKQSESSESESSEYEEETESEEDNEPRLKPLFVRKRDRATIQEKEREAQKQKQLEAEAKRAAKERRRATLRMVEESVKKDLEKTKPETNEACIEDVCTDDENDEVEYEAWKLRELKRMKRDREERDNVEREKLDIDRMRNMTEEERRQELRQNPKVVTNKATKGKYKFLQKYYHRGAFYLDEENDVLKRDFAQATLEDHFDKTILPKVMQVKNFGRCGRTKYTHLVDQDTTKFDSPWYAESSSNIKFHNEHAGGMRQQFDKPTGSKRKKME

B1: HA-tagged TDP-43 (full length) (protein, UniProt O97468 1-531)
chain: MDFVQVSEEEGDEPIQLPAEEDGTLLLSTLQAQFPGSCGLKYRNLDTKAVRGVRSNEGRLFPPSVESGWGEYAYFCVFPKENKRKSDDNLENSTAKTKRIETRLRCTDLIVLGLPWKTTEESLREYFETYGEVLMAQIKKDTKSGQSKGFGFVRFGSYDAQMRVLTNRHLIDGRWCEVKVPNSKGMGHQVPCKVFVGRCTEDINSDDLREYFSKFGEVTDVFIPRPFRAFSFVTFLDPDVAQSLCGEDHIIKGVSVHVSNAAPKAEQNRNQQVQSYNYNSANSFGMHSYHPQGNHMNPGRNGHHRGNNQHNAHGGENAIVPNNHNIGTAGYGMGGNNYGGNSGGGYHNNGGNHSSGGNTNRQDGGSQYNSRQSNFHGMNQPHNGNVGGSNGWMNRGHLDMPNLQALGINSQGSSSSNQGQNMSNQSMLNLNSLPINPALVAAALNQWSLVGNQLQNQNQDQQGGNFLSWMAQNGGHNNANNFGGRKGPNNPNNNPAANGIKTDNSEPQNGNTGWSNQSSGSQNAAEKSNFL
With B1 the binding [1] was “no binding”, the binding [2] was “binds” and the binding [3] was “binds”.
